# In PubChem BioAssay AID2685 (National Center for Advancing Translational Sciences (NCATS), 2010):
# Some of the results follow. Shown are side measurements of this screen, not its main read-out; they come without a call. The list favours compounds with an active or inconclusive main result. Words in brackets tell the shape of the fitted curve; partial curves, single points and poor fits give uncertain potencies.
# Assay: qHTS Assay for Lipid Storage Modulators in Drosophila S3 Cells;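 for cell number change: cells counted by Cell Tracker Red CMTPX staining in the red channel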
# Conditions: BODIPY lipid droplet fluorescence, 18-24 h; for cell number change: measured here: cell count max response, cells fed with added oleic acid
# How it was run: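 Laser-scanning cytometry quantifies lipid droplet accumulation (500–530 nm total intensity; droplet/cell object ratio) in oleic acid-fed (400 uM added) Drosophila S3 cells treated with a concentration series. 20 uM Triacsin C defined 100% inhibition.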
# [1] = measured here: cell number channel AC50, cells fed with added oleic acid
# [2] = measured here: lipid fluorescence (Fed channel) AC50, cells fed with added oleic acid
Structure (SMILES),AC50 [1],cell number change [%],AC50 [2]
COC(=O)c1[nH]c2ccc(Cl)cc2c1NC(=O)CCN1CCN(C2CCCCC2)CC1,"6.51 µM [falling, single point]",–,–
COc1cc(/C=N/NC(=O)c2ccccn2)ccc1OC(=O)c1ccccc1Br,"29.1 µM [falling, single point]",-38.6,–
COc1ccc(C(=O)N/C(=C\c2cccc3ccccc23)C(=O)N2CCN(C)CC2)cc1,–,-4.26,"0.651 µM [rising, single point]"
CCOC(=O)N/N=C/c1ccc(N2CCOCC2)s1,–,5.91,"0.103 µM [rising, single point]"
CCN1CCN(C(=O)c2ccccc2N(Cc2ccccc2)S(C)(=O)=O)CC1,"29.1 µM [falling, single point]",-31.4,"0.0058 µM [falling, full curve, poor fit]"
CCOc1ccc(N(CC(=O)Nc2cccc(N(C)S(C)(=O)=O)c2)S(=O)(=O)c2ccccc2)cc1,"1.84 µM [rising, partial curve, poor fit]",-0.582,"1.46 µM [rising, partial curve, poor fit]"
O=C(NCCCNCc1ccccc1)c1ccncc1,–,7.74,–
CC1CCCC(NC(=O)NC(=O)COC(=O)c2ccc(O)cc2O)C1C (stereo not drawn),"25.9 µM [falling, partial curve]",-62.9,"0.164 µM [rising, full curve, poor fit]"
CN(C(=O)c1ccc(NC(=O)Cc2ccc(NC(=O)C3CCN(C(=O)CCc4ccccc4)CC3)cc2)cc1)C1CC1,"1.84 µM [falling, partial curve]",-37.6,"1.84 µM [falling, partial curve, poor fit]"
COC(=O)[C@H](CCSC)NC(=O)Nc1cccc(C)c1C,"2.31 µM [falling, partial curve, poor fit]",-9.36,–
Cc1cc(=O)oc2cc(OCc3ccc(C(=O)OCC(=O)Nc4ccccc4OC(F)F)cc3)ccc12,–,9.04,"1.3 µM [falling, single point]"
C=CCn1c(C)cc(C(=O)CSc2nnc(C3CC3)n2C2CC2)c1C,–,-12.6,"0.0517 µM [falling, full curve, poor fit]"
C=CCSc1nc2sc3c(c2c(=O)n1-c1ccc(C)cc1)CCN(C)C3,"0.651 µM [rising, single point]",–,"0.517 µM [rising, partial curve, poor fit]"
CC(C)Oc1cccc(C(=O)Nc2ccc(N3CCN(C)CC3)cc2)c1,–,7.62,"4.11 µM [rising, single point]"
COCCN(CC(=O)NCC1CCCO1)C(=O)CCC(=O)Nc1ccccn1 (stereo not drawn),–,5.35,–
O=C(O)c1ccc(/C=N/NC(=O)c2cc(-c3cccs3)nc3ccccc23)cc1,–,-18,–
Cc1cc(/C(N)=N/OC(=O)Nc2cccc(C(F)(F)F)c2)no1,"1.64 µM [falling, partial curve]",-51.2,"1.84 µM [falling, partial curve]"
Cc1cc(OCC(=O)Nc2ccc(S(=O)(=O)N3CCN(C)CC3)cc2)cc(C)c1Cl,"0.231 µM [falling, full curve, poor fit]",–,–
c1cc2c(cc1Oc1nc(N3CCOCC3)nc(N3CCOCC3)n1)OCO2,–,6.85,–

Structure (SMILES),AC50 [1],cell number change [%],AC50 [2]
COc1ccccc1CNC(=O)CCCOc1cc(=O)n(C)c2ccccc12,–,3.25,"3.26 µM [rising, single point]"
Cn1nnnc1SCC(=O)c1cccs1,–,0.605,"0.82 µM [falling, full curve, poor fit]"
O=C(O)c1cc2nc3c(c(C(F)(F)F)n2n1)CCc1ccccc1-3,"0.58 µM [rising, full curve, poor fit]",30,"6.51 µM [rising, single point]"
COc1cccc(C(=O)Nc2ccc(NC(=O)c3ccco3)nc2)c1,–,0.696,–
Cc1ccc(C(=O)Nn2c(C)nc3ccccc3c2=O)cc1C,"29.1 µM [rising, single point]",70.3,–
O=C(OCC(=O)N1CCOCC1)c1cc(F)c(F)cc1Cl,–,10.3,"29.1 µM [falling, single point]"
CCCCNC(=O)CCn1nc(-c2ccc(Cl)cc2)ccc1=O,–,-7.09,"29.1 µM [rising, single point]"
COc1ccc(-n2c(C)cc(C(=O)CSc3ccc(NC(C)=O)cc3)c2C)cc1,–,–,"9.2 µM [rising, partial curve, poor fit]"
COC(=O)C1(C)NC(c2ccc(F)cc2)C2C(=O)N(c3ccc(C)cc3)C(=O)C21 (stereo not drawn),–,17.8,–
O=C(COC(=O)CNC(=O)C1CCCCC1)Nc1cccc(F)c1,–,4.14,–
c1ccc(-c2ccc(-c3cnc4n3CCCCC4)cc2)cc1,"2.06 µM [rising, partial curve]",2.29,"2.91 µM [rising, partial curve]"
CCN(CC)CCOC(=O)c1cccc(Cl)c1,"0.291 µM [falling, partial curve]",-3.39,"29.1 µM [falling, single point]"
O=C(O)c1cccc(-c2ccc3c(c2)OCO3)c1,–,7.73,"29.1 µM [rising, single point]"
C=C(C)C1CC=C(CN2CCC(O)CC2)CC1 (stereo not drawn),–,24.6,"0.82 µM [rising, full curve, poor fit]"
COc1cc(SC)ccc1C(=O)NCc1ccc(C)cc1,"25.9 µM [rising, single point]",38.5,"23.1 µM [rising, single point]"
O=C1CC(c2cccc([N+](=O)[O-])c2)c2ccc3ccccc3c2N1 (stereo not drawn),"1.64 µM [rising, partial curve, poor fit]",-17.6,"3.26 µM [rising, partial curve]"
CSC1=C(C#N)C(CC(C)C)C(C(C)=O)=C(C)N1 (stereo not drawn),–,10.7,"0.00461 µM [falling, full curve, poor fit]"
Fc1ccc(Nc2ccnc(Nc3ccc(F)cc3)n2)cc1,"13 µM [falling, partial curve]",-33.1,"3.26 µM [rising, single point]"
CCCCCCCCCC(=O)N/N=C(\C)c1cccnc1,"14.6 µM [falling, partial curve]",-56.1,"16.4 µM [falling, partial curve]"

# Entries from the list above with a CF3 group, in the order listed:
Structure (SMILES),AC50 [1],cell number change [%],AC50 [2]
Cc1cc(/C(N)=N/OC(=O)Nc2cccc(C(F)(F)F)c2)no1,"1.64 µM [falling, partial curve]",-51.2,"1.84 µM [falling, partial curve]"
O=C(O)c1cc2nc3c(c(C(F)(F)F)n2n1)CCc1ccccc1-3,"0.58 µM [rising, full curve, poor fit]",30,"6.51 µM [rising, single point]"

# Further entries:

Structure (SMILES),AC50 [1],cell number change [%],AC50 [2]
O=C(C1CC(=O)N(c2ccc3c(c2)OCCO3)C1)N1CCN(c2ccccc2)CC1 (stereo not drawn),–,17.7,–
CSc1ccccc1OCc1cc(C(=O)NCc2csc(C(C)C)n2)no1,–,21.7,–
COc1ccc(Cl)cc1NC(=S)Nc1cccnc1,–,-37.6,"11.2 µM [rising, single point]"
Cc1cc(C)cc(N2C(=O)CC(c3ccccc3)CC2=O)c1,"6.51 µM [rising, single point]",1.66,"6.51 µM [rising, single point]"
O=C(CSc1nncn1-c1ccccc1)Nc1cc(F)ccc1F,"0.82 µM [falling, full curve, poor fit]",-23,"29.1 µM [falling, single point]"
Cc1csc(NC(=O)CSc2nnc3c4ccccc4nc(C(C)(C)C)n23)n1,"29.1 µM [falling, single point]",-30.9,"20.6 µM [falling, single point]"
COCCCNC(=S)Nc1ccc(CC(=O)O)cc1,–,-1.71,–
O=C(Cn1c(=O)ccn(Cc2ccccc2)c1=O)Nc1cccc(S(=O)(=O)N2CCOCC2)c1,–,-1.92,–
CCCCCCn1c(COc2ccccc2F)nnc1SCC(=O)N1c2ccccc2NC(=O)C1(C)C,"1.64 µM [falling, single point]",-43.4,"25.9 µM [falling, partial curve, poor fit]"
CC(CNS(=O)(=O)c1ccc(Cl)cc1)n1cncn1 (stereo not drawn),–,11.3,"0.92 µM [falling, single point]"
COc1ccc(/C(C)=N/NC(=O)C(NC(=O)c2ccccc2)c2n[nH]c(=O)c3ccccc23)c(OC)c1 (stereo not drawn),–,2,"0.146 µM [rising, partial curve, poor fit]"
O=C(Nc1cccnc1)c1ccccc1-c1nc(-c2ccccc2F)no1,–,5.48,"29.1 µM [rising, partial curve]"
O=C(NC(=S)Nc1nc2ccccc2s1)c1cccs1,–,-23,"20.6 µM [rising, single point]"
CCOc1ccc(NS(=O)(=O)c2ccc(C(=O)N3CCCC3)cc2)cc1,"2.06 µM [rising, partial curve]",19.3,–
CCN(CC)S(=O)(=O)c1cccc(NC(=O)C2CC(=O)N(c3ccc4c(c3)OCCO4)C2)c1 (stereo not drawn),"2.31 µM [rising, single point]",20.5,–
COc1cccc(/C=N/c2sc(Cc3ccccc3)c(C)c2C(N)=O)c1O,"18.4 µM [falling, partial curve]",-49.8,"29.1 µM [falling, single point]"
O=C1c2cccc3cccc(c23)C(=O)N1CCCN(C(=O)c1cccs1)c1cccc(F)c1,–,16.2,"32.6 µM [rising, single point]"
CCOC(=O)c1sc(=NC(=O)/C=C/c2ccccc2)n(C)c1C,"0.731 µM [rising, full curve, poor fit]",11.8,"2.06 µM [rising, single point]"
Cc1ccc2nc(NC(=O)CCCC(=O)O)sc2c1,–,-27.8,"6.51 µM [falling, single point]"
